PubChem BioAssay AID1259261 – Sanger Institute – 2017
This is a random part of 794 reagents tested. 10 of all reagents (1.3%) count as active. 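Calls reflect knock-down alone without drug; synergy scores with BYL719, cetuximab or trametinib do not affect calls.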 A number with no mark means an inactive call. Viability is capped at 1. No sequences are given here. The record does not give: the amount of reagent, the time to read-out.

Aim: 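Find kinase silencing that cuts viability alone or with anchor drugs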 (primary screen)
Cells: HCC2998 human colorectal cancer cells
Reagents: siRNA pool against human genes
Conditions: anchor drugs BYL719 1 µM, cetuximab 5 µg/ml or trametinib 10 nM, each compared with DMSO vehicle
Measurement: 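Viability as fraction of non-targeting control plus robust z-score without drug; synergy scores compare knock-down plus drug against each alone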
Scale: viability z-score, knock-down alone: higher = more viable cells than controls; viability fraction, knock-down alone: higher = more viable cells; synergy score with BYL719: higher = stronger combined killing with BYL719; synergy score with trametinib: higher = stronger combined killing with trametinib; synergy score with cetuximab: higher = stronger combined killing with cetuximab
Active means: 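Essential when the siRNA-alone viability robust z-score is below -3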
Meaning of the calls: active = essential; inactive = no change

target gene | viability z-score, knock-down alone | viability fraction, knock-down alone | synergy score with BYL719 | synergy score with trametinib | synergy score with cetuximab
ALPK2 | -0.367 | 0.803 | -0.0559 | 0.0419 | 0.0571
MAK | 0.497 | 0.911 | -0.00958 | 0.131 | -0.0746
GALK2 | -0.199 | 0.824 | 0.00244 | 0.114 | 0.0151
KIT | 0.15 | 0.868 | -0.0497 | -0.0449 | 0.0599
BMX | -0.0853 | 0.838 | -0.104 | 0.0888 | -0.0707
NEK10 | 0.702 | 0.937 | -0.128 | 0.102 | -0.0343
DGKA | -0.463 | 0.791 | -0.0723 | 0.128 | 0.0472
POMK | 1.12 | 0.99 | -0.118 | -0.0511 | -0.0529
IP6K3 | -0.452 | 0.792 | -0.0189 | -0.0933 | 0.0587
SLK | 1.12 | 0.989 | -0.118 | -0.0358 | -0.0534
HUS1 | -0.604 | 0.773 | -0.0225 | 0.0717 | -0.0711
KCNH2 | -0.359 | 0.804 | -0.0593 | -0.0362 | 0.0468
PLK2 | 0.911 | 0.963 | -0.103 | -0.015 | -0.026
PRKCG | -0.0344 | 0.845 | -0.0798 | -0.00935 | -0.125
EFNA5 | 1.21 | 1 | -0.109 | 0.0676 | -0.0432
PRKCQ | -0.254 | 0.817 | -0.00735 | 0.0821 | -0.188
TYRO3 | 1.21 | 1 | 0.0619 | -0.00192 | -0.0432
CDKL1 | 0.826 | 0.952 | -0.0546 | 0.138 | -0.057
PAPSS2 | 0.694 | 0.936 | 0.0143 | 0.0437 | -0.046
UHMK1 | 0.0914 | 0.86 | 0.0865 | -0.0211 | -0.0926

In a second layout: results already given.
{"target gene": "CDKL1", "viability z-score, knock-down alone": 0.826, "viability fraction, knock-down alone": 0.952, "synergy score with BYL719": -0.0546, "synergy score with trametinib": 0.138, "synergy score with cetuximab": -0.057}
{"target gene": "PAPSS2", "viability z-score, knock-down alone": 0.694, "viability fraction, knock-down alone": 0.936, "synergy score with BYL719": 0.0143, "synergy score with trametinib": 0.0437, "synergy score with cetuximab": -0.046}
